For 4 molecules, binding results are on record in paper PMC11081805.

Chains of the proteins cited; added tags and fusions are not shown.
UniProt P53779: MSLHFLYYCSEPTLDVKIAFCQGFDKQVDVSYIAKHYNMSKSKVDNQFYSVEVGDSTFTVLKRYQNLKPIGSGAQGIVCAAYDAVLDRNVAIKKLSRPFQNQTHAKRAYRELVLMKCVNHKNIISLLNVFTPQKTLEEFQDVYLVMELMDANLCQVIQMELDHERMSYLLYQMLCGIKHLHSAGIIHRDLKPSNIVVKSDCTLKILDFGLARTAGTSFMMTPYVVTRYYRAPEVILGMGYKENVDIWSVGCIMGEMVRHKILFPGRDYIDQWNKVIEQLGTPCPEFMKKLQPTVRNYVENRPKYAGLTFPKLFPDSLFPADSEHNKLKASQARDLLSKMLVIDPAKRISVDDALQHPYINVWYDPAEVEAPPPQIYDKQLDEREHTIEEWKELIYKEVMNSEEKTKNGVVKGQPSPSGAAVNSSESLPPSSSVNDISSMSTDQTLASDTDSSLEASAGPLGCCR

In experiment [1] the target is T1, FLAG-SAP102 (FLAG-tagged WT SAP102) (human) (UniProt Q92796).
T1 sequence: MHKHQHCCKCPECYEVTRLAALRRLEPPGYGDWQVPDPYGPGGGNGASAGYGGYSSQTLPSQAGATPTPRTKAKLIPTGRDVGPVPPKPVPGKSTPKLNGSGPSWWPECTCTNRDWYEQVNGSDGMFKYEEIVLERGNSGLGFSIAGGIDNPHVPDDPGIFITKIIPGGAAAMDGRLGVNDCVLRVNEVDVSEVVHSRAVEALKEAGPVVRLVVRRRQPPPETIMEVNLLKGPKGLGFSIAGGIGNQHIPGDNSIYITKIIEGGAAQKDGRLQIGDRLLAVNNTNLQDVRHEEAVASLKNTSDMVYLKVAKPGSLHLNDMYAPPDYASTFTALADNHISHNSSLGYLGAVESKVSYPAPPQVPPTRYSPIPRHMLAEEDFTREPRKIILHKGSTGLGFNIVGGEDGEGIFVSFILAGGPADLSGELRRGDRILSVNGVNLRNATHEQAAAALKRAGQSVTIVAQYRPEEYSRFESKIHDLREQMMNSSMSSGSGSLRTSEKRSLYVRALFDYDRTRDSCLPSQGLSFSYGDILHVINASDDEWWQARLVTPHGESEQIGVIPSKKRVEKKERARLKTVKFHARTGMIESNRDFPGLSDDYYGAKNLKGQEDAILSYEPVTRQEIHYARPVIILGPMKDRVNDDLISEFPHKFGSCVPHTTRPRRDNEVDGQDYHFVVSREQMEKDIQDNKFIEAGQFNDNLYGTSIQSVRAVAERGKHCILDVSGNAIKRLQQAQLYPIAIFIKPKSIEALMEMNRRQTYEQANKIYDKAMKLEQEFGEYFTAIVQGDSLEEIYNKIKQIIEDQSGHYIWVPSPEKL
The experiment in a line: co-IP; HEK293T cells co-expressing FLAG-SAP102, JNK3-V5 and EGFP-GluK2-cyto (intact PDZ ligand); precipitating antibody not given; lysis buffer 50 mM Tris-HCl pH 7.5, 100 mM NaCl, 0.1% Triton-X.

Experiment [2] deals with T2, EGFP-GluK2-cyto (cytoplasmic C-terminal tail of GluK2) (mouse) (UniProt P39087).
T2 sequence: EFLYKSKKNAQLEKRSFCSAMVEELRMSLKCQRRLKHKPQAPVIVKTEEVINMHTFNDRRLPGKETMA
The experiment in a line: co-IP; HEK293T cells co-expressing EGFP-GluK2-cyto or EGFP-GluK2-cytoINT and JNK3-V5; GFP-IP, blot with anti-V5; lysis buffer 50 mM Tris-HCl pH 7.5, 100 mM NaCl, 0.1% Triton-X; mouse IgG as negative control.

The target in experiment [3] is T3, EGFP-GluK2-cytoINT (cytoplasmic GluK2 C terminus with phospho-mimicking mutations S846E and S868E) (mouse) (UniProt P39087).
T3 sequence: T2 sequence with S6E, S28E
Described as above.

Experiment [4] addresses T1, FLAG-SAP102 (FLAG-tagged WT SAP102) (human). The experiment in a line: co-IP; HEK293T cells co-expressing FLAG-SAP102, JNK3-V5 and EGFP-GluK2-cyto-short (841-882, PDZ ligand deleted); precipitating antibody not given; lysis buffer 50 mM Tris-HCl pH 7.5, 100 mM NaCl, 0.1% Triton-X.
Experiment [5] has as its target MYC-GluK2 (full-length kainate receptor subunit GluK2) (mouse) (UniProt P39087). The experiment in a line: co-IP; HEK293T cells co-expressing full-length MYC-GluK2 and EGFP-JNK3; MYC-IP; lysis buffer 50 mM Tris-HCl pH 7.5, 100 mM NaCl, 1% Triton-X; mouse IgG as negative control.
The target in experiment [6] is T2, EGFP-GluK2-cyto (cytoplasmic C-terminal tail of GluK2) (mouse). The experiment in a line: co-IP; Fig. S6 (not shown): GluK2 cytosolic region with SAP102; cells, constructs and antibody not given.
The target is the same in experiment [7]. The experiment in a line: co-IP; HEK293T cells co-expressing FLAG-SAP102, JNK3-V5 and EGFP-GluK2-cyto (intact PDZ ligand); precipitating antibody not given; lysis buffer 50 mM Tris-HCl pH 7.5, 100 mM NaCl, 0.1% Triton-X.
For experiment [8] the target is unchanged. The experiment in a line: co-IP; CHL cells co-expressing FLAG-SAP102 (WT or S368A) and EGFP-GluK2-cyto; GFP-IP (2 ug antibody, Protein G Agarose), blot with anti-FLAG; mouse IgG as negative control; lysis buffer 50 mM Tris-HCl pH 7.5, 100 mM NaCl, 0.1% Triton-X.

Residue numbers refer to the chain shown, from its start. Names may count otherwise. These are yes or no findings as the source states them, for the method shown. In cells and extracts the contact can be indirect. Some entries that bind do so weakly or less than the wild type. For part of these data: Where a sequence is shown, tags or fusion partners need not be part of it.

As for “JNK3-V5 (from UniProt P53779 1-464) (enzyme)”, the binding entry in experiment [1] is “binds”; in experiment [2], “binds”; in experiment [3] it was “binds”; in experiment [4] it was “binds weakly”.

For “EGFP-JNK3 (from UniProt P53779 1-464) (enzyme)”, the binding result in experiment [5] is “binds”.

B1: FLAG-SAP102 (FLAG-tagged WT SAP102) (protein, UniProt Q92796 1-817)
chain: T1 sequence
With B1, the binding entry in experiment [6], in experiment [7] and in experiment [8] was “binds” in each case.

B2: FLAG-SAP102-S368A (phospho-deficient SAP102 variant) (protein, UniProt Q92796 1-817)
chain: T1 sequence with S368A
As for B2, the binding entry in experiment [8] is given as “binds”.
